Source: PMC4468860

Biological target: T1, GST-LNt (rat) (UniProt Q63560)
T1 sequence: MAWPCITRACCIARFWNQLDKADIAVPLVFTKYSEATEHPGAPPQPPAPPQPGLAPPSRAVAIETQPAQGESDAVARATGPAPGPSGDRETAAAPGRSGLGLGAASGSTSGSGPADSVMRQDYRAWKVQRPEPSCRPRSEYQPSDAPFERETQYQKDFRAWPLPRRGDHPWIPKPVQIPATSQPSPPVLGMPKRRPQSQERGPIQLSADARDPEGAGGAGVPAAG
Experiment: pull-down; GST-LNt on glutathione-sepharose beads incubated with postnatal brain lysate; blots probed with anti-p85 or anti-intersectin; only the target purified

For p85 subunit of PI3K (endogenous, brain), the binding was “binds”.

No constants are given. Whether binding was seen depends on the method and setting. Binding seen in cells or lysates may run through a third protein. A result given as binding can be weak or reduced; the word gives no strength. Tags and fused reporters may be left off the sequences shown.
